Reference: patent publication US20220403022A1
Residue numbers refer to the chain shown, from its start. These are yes or no findings as the source states them, for the method shown. Binding can be weak; no strength is given.

B1: 3964A06 (antibody, human IgG1, V domains shown)
VH: EVQLVQSGSELKKPGASVKVSCKASGYTFTAYPMNWVRQAPGQGLEWMGWINTNTGNPTYAQGFTGRFVFSLDTSVSTAYLQISSLKAEDTAVYYCARVGGYSVYDYAFDIWGQGTMVTVSS
VL: DIQLTQSPSFLSASVGDRVTITCRASQGISSYLAWYQQKPGKAPKLLIYAASTLQSGVPSRFSGSGSGTEFTLTISSLQPEDFATYYCQQLNSYPTFGGGTKVEIK
B2: 3965D08 (antibody, human IgG1, V domains shown)
VH: EVQLVQSGSELKKPGASVKVSCKASGYTFTSYPMNWVRQAPGQGLEWMGWINTNTGNPTYAQGFTGRFVFSLDTSVSTAYLQISSLKAEDTAVYYCARTGYSGSYYWFDPWGQGTLVTVSS
VL: B1 VL with Q3R, L46F, P95L, G99Q, K102R, V103L
B3: 3966C11 (antibody, human IgG1, V domains shown)
VH: B1 VH with V2I, A31S, Y60N, S103G, V104G
VL: B1 VL with V103L

Molecular target: cynomolgus monkey TIGIT ECD expressed on the CHO-S cell surface (cynomolgus monkey)
Assay: flow cytometry on CHO-S cells expressing cynomolgus monkey TIGIT ECD

Binder	binding
B1	binds
B2	binds
B3	binds
